From the supplement of paper PMC8047044 come the findings set out here.

Counter-ions that a name gives are not always drawn. The list shows a part of the results. Repeats are few or missing, and single values can be far off.

This experiment has as its system Neuro-2a. Nature of the experiment: neurite formation score, plate-normalized to DMSO control mean 5.04 (score (0-8 scale)); higher = more or longer neurites. The following applies: 10 µM.
Regarding `Cc1[nH]nc2ccc(-c3cncc(OC[C@@H](N)Cc4ccccc4)c3)cc12`, the neurite formation score turned out to be 3.76. The figure for `O=C(c1cccc(Cl)c1F)N1CCN(Cc2cccc(Nc3nccs3)n2)CC1` is 1.42; for `N#CC[C@H](C1CCCC1)n1cc(-c2ncnc3[nH]ccc23)cn1` it is 5.54; for `Cc1nc(Nc2cnn(C3CCNCC3)c2)nc2c1N(C)C(=O)c1cc3ccccc3cc1N2C` it is 1.09.

`CC(C)(CCCCCC(O)CCCCCC(C)(C)C(=O)O)C(=O)O` had a neurite formation score of 4.42. The same measure for `Cc1cc(C)c(/C=C2\C(=O)Nc3ccccc32)[nH]1` [Semaxanib (SU5416)]: 5.19; for `CN1CCN(c2ccc(C(=O)Nc3n[nH]c4ccc(Cc5cc(F)cc(F)c5)cc34)c(NC3CCOCC3)c2)CC1` [Entrectinib]: 0.189; for `O=S(=O)(c1cccc2c(O)nccc12)N1CCCNCC1` [Hydroxyfasudil hydrochloride]: 4.42. The same measure for `CCOc1ccc(Nc2ccc(/C(=C3C=C/C(=[N+](/CC)Cc4cccc(S(=O)(=O)[O-])c4)C=C/3C)c3ccc(N(CC)Cc4cccc(S(=O)(=O)O)c4)cc3C)cc2)cc1` [Brilliant Blue G]: 2.86; for `N#Cc1c(Oc2ccc(F)c(NC(=O)Cc3cccc(C(F)(F)F)c3)c2)ccc2nc(NC(=O)C3CC3)sc12`: 2.85; for `CC(C)N(CCC(=O)c1ccc2ccccc2c1)Cc1ccccc1`: 4.41. `C[C@@H](Oc1cc(-c2cnn(C3CCNCC3)c2)cnc1N)c1c(Cl)ccc(F)c1Cl` [(R)-Crizotinib] yielded a neurite formation score of -0.124. The same measure for `O=C1NC(=O)C(c2ccccc2[N+](=O)[O-])=C1Nc1ccc(O)c(Cl)c1`: 4.85; for `Cn1cc(/C=C2\C(=O)Nc3cccnc32)c2ccccc21`: 4.52.

The molecule `CC1=C(C(=O)Nc2cc3cn[nH]c3cc2F)C(c2ccc(C(F)(F)F)cc2)CC(=O)N1` (centres undefined) gave a neurite formation score of 4.52.

`C[C@@]1(C(=O)Nc2ccc(F)nc2)CCCN1c1nc(Nc2cc(C3CC3)n[nH]2)c2cccn2n1` registered a neurite formation score of 0.543.

As for `CC1(COc2ccc3c(c2)ncn3-c2ccc3cccc(N4CCC(N)CC4)c3n2)COC1`, the neurite formation score is 5.19. The figure for `CNC(=O)c1cc(Oc2ccc3nc(N[C@@H]4CCCC[C@H]4O)sc3c2)ccn1` is 3.86. The same measure for `CCc1cc(Nc2nccc(-c3c(-c4ccc(OC)c(C(=O)Nc5c(F)cccc5F)c4)nc4ccccn34)n2)c(OC)cc1N1CCC(N2CCN(S(C)(=O)=O)CC2)CC1`: 4.21; for `CS(=O)(=O)c1cccc(CNc2nc(Nc3ccc4c(c3)CCC(=O)N4)ncc2C(F)(F)F)c1`: 2.76; for `CC(C)(C)c1cnc(CSc2cnc(NC(=O)C3CCNCC3)s2)o1`: 6.21. As to `FC(F)(F)c1ccc(CNc2ccc(Cc3c[nH]c4ncccc34)cn2)cc1`, the neurite formation score was determined as 0.189.

The molecule `COc1ccc(C(=O)Nc2sc3c(c2C(N)=O)CCCC3)cc1OC` returned a neurite formation score of 4.88.

`Fc1cc(-c2cccc3ncc(-c4cnn(C5CCNCC5)c4)nc23)cc(F)c1CN1CCOCC1` came in with a neurite formation score of 2.76. The molecule `CC(C)Oc1ccc(-c2cnc3c(-c4ccnc5ccccc45)cnn3c2)cc1` had a neurite formation score of 4.52.

Molecule `CCOc1cc2ncc(C#N)c(Nc3ccc(F)c(Cl)c3)c2cc1NC(=O)/C=C/CN(C)C` [Pelitinib (EKB-569)] showed a neurite formation score of 0.543.

`COc1cc(N2CCC(N3CCN(C)CC3)CC2)ccc1Nc1ncc(Cl)c(Nc2ccccc2S(=O)(=O)C(C)C)n1` registered a neurite formation score of 0.519. The same measure for `C=CC(=O)Nc1cc(Nc2nccc(-c3cn(C)c4ccccc34)n2)c(OC)cc1N(C)CCN(C)C`: 0.0903. The same measure for `Cc1cc(Nc2ncc(Cl)c(Nc3ccccc3S(=O)(=O)C(C)C)n2)c(OC(C)C)cc1C1CCNCC1`: -0.147; for `NC(=O)c1ccc2nc(-c3ccc(Oc4ccc(Cl)cc4)cc3)[nH]c2c1`: 5.09. In turn, `Cc1[nH]c(/C=C2\C(=O)Nc3ccccc32)c(C)c1CCC(=O)O` [TSU-68 (SU6668,Orantinib)] had a neurite formation score of 3.19. The figure for `CC[C@H](CO)Nc1nc(NCc2ccccc2)c2ncn(C(C)C)c2n1` [Roscovitine (Seliciclib,CYC202)] is 4.88. The figure for `COc1cc(Nc2ncc(F)c(Nc3ccc4c(n3)NC(=O)C(C)(C)O4)n2)cc(OC)c1OC` [R406 (free base)] is 3.19. The molecule `O=C1NC(=NCc2cccs2)S/C1=C\c1ccc2ncccc2c1` returned a neurite formation score of 5.09. The same measure for `Nc1nc(N)c(N=O)c(OCC2CCCCC2)n1`: 5.54; for `CCN(CCCOc1ccc2c(Nc3cc(CC(=O)Nc4cccc(F)c4)[nH]n3)ncnc2c1)CCOP(=O)(O)O`: 5.21; for `O=C1NCCc2[nH]c(-c3ccncc3)cc21`: 5.41. The figure for `CCn1c(-c2nonc2N)nc2c(C#CC(C)(C)O)ncc(OC[C@H]3CCCNC3)c21` is 3.74. Turning to `O=C1NCCSc2c1sc1ccc(O)cc21`, the neurite formation score was 6.08.
